Laboratory results published in ChEMBL document CHEMBL3108680, “Diversity-oriented synthesis of α-aminophosphonates: a new class of potential anticancer agents” (Eur J Med Chem, 2013).
pIC50: −log10 of the molar value.

Test system: Jurkat
Experiment: Cytotoxicity against human Jurkat cells after 48 hrs by MTT assay
Format: functional, cell-based
Outline: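 Jurkat and Colo 320DM grown in RPMI 1640 with 10% FBS and 1% ampicillin; A549 in 90% DMEM with 10% FBS. Cells seeded at line-dependent densities, held 24 h compound-free, then exposed 48 h to six 2-fold dilutions (top […]). MTT (10 mg/ml PBS solution) added for 4 h at 37 °C; DMSO-solubilized formazan read at 570 nm. Three runs in triplicate.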

CC/C(=C(\c1ccccc1)c1ccc(OCCN(C)C)cc1)c1ccccc1 [TAMOXIFEN]
pIC50: 5.08
